Laboratory results reported in the supplement of paper PMC10849652.
Some of the results follow. Residues, ends and D or L forms follow the SMILES beside them. *: point of attachment. Cbz = O=C(OCc1ccccc1)*

The chains behind the UniProt entries cited, without tags or fusion partners. Where a name states a change or a piece, a line headed by the entry shows the natural chain unless it says otherwise.
UniProt P23142: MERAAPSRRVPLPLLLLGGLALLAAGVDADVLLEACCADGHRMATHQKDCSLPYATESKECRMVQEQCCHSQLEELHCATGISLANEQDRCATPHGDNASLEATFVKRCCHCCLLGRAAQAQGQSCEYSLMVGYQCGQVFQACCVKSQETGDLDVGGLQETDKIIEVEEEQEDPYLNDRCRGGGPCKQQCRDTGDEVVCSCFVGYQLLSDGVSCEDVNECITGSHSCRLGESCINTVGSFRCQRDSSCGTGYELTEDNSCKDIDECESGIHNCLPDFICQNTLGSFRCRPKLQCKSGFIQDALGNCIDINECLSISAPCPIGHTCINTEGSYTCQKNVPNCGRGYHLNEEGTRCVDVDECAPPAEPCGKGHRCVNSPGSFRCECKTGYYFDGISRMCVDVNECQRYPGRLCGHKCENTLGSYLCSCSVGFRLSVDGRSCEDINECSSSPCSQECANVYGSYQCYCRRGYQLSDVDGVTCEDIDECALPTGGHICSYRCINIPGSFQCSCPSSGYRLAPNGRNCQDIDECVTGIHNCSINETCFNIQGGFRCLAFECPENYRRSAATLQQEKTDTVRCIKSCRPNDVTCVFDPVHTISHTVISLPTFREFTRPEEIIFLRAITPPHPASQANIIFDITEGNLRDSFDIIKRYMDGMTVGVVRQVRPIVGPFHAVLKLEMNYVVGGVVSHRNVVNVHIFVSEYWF
UniProt P26885: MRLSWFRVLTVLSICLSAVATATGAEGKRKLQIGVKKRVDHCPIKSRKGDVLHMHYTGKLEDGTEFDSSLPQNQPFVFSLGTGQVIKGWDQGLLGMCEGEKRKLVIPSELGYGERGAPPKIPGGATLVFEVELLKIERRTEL
UniProt Q9NXK8: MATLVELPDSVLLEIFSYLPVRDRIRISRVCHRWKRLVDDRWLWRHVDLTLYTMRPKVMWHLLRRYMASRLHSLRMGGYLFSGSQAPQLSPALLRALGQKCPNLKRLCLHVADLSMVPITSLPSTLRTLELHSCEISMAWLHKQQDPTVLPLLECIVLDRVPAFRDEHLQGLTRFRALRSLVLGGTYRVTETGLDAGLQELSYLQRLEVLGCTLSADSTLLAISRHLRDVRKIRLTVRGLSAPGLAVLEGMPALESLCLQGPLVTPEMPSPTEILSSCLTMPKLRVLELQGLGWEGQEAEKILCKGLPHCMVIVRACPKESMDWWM
UniProt Q8NEZ5: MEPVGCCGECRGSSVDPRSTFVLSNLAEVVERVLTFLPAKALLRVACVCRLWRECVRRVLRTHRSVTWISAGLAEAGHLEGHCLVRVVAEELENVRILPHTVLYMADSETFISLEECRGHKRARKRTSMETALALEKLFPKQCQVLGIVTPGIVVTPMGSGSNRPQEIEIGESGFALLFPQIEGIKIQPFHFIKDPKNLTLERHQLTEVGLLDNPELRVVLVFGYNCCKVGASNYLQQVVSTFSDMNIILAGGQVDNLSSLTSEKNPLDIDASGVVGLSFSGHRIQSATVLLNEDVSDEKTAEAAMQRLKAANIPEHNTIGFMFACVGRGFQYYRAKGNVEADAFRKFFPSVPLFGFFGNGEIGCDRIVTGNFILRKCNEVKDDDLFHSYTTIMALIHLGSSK
UniProt Q8NFZ0: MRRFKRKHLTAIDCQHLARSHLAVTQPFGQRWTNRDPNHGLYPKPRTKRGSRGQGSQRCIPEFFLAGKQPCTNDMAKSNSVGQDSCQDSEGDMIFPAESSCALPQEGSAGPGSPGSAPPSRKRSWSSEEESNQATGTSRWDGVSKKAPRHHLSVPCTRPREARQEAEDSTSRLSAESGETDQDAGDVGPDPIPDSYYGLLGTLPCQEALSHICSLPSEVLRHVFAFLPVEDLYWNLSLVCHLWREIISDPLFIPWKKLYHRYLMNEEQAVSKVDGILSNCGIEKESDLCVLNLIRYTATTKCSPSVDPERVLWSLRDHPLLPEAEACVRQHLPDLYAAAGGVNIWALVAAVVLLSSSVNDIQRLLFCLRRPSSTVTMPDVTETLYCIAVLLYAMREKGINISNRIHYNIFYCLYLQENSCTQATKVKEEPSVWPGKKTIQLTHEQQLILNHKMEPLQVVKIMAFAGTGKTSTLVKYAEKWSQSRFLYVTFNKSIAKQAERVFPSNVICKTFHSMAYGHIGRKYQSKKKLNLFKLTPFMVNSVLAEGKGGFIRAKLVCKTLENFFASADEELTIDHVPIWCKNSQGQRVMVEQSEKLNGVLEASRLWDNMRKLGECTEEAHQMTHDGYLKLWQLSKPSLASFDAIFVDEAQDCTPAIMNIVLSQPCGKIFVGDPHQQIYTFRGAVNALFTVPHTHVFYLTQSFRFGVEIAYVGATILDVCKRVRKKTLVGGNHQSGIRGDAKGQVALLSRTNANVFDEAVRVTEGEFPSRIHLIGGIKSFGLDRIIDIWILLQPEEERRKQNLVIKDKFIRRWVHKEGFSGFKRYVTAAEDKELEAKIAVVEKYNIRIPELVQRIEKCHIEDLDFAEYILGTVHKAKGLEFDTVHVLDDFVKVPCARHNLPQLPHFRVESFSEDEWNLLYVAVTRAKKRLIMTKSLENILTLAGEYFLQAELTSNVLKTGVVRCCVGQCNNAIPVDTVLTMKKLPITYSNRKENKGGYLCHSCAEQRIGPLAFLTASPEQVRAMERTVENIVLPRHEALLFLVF
UniProt Q9NYY8: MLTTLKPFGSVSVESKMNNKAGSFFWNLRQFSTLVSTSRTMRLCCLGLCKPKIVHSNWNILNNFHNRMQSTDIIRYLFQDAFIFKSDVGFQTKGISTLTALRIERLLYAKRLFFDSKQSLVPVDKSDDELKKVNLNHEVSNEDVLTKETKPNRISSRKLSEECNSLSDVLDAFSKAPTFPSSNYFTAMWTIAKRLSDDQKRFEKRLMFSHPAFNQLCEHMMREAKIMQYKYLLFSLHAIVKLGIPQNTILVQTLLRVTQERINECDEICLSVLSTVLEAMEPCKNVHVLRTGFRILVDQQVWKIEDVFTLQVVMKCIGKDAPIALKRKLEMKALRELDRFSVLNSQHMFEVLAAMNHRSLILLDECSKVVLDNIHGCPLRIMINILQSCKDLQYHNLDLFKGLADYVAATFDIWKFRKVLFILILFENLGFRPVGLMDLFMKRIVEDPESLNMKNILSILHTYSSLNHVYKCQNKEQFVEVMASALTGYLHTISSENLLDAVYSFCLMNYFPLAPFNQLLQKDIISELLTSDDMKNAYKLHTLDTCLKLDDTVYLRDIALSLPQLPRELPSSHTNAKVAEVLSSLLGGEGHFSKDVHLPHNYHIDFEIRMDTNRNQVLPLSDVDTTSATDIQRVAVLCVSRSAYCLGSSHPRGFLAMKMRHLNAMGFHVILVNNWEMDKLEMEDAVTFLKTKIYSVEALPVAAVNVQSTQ
UniProt Q9UKT4: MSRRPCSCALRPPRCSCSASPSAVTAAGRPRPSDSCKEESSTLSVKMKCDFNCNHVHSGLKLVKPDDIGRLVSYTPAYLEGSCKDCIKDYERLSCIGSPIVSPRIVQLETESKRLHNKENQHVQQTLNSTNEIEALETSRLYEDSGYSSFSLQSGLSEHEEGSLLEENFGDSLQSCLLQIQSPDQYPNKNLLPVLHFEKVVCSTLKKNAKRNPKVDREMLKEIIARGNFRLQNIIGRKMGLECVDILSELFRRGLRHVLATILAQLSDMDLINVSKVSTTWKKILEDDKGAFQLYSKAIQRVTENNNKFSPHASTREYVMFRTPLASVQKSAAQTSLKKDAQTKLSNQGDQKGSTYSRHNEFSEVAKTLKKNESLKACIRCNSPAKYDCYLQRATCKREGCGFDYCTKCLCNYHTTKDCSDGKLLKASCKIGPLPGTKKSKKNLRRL
UniProt Q8WVX9: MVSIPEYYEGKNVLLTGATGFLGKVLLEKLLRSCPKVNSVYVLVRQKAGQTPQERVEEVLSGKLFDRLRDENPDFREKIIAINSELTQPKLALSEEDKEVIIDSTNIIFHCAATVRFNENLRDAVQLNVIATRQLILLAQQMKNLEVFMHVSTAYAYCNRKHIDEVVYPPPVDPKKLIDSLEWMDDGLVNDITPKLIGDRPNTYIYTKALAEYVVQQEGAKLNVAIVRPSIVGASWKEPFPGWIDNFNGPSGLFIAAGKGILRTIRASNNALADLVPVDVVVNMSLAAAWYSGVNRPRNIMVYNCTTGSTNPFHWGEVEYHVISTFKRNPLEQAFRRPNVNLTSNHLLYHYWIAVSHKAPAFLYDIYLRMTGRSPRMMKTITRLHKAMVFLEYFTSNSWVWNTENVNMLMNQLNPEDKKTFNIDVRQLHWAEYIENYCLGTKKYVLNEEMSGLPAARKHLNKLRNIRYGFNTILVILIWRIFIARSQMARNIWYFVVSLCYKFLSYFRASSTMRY
UniProt P35916, whole entry, looked up: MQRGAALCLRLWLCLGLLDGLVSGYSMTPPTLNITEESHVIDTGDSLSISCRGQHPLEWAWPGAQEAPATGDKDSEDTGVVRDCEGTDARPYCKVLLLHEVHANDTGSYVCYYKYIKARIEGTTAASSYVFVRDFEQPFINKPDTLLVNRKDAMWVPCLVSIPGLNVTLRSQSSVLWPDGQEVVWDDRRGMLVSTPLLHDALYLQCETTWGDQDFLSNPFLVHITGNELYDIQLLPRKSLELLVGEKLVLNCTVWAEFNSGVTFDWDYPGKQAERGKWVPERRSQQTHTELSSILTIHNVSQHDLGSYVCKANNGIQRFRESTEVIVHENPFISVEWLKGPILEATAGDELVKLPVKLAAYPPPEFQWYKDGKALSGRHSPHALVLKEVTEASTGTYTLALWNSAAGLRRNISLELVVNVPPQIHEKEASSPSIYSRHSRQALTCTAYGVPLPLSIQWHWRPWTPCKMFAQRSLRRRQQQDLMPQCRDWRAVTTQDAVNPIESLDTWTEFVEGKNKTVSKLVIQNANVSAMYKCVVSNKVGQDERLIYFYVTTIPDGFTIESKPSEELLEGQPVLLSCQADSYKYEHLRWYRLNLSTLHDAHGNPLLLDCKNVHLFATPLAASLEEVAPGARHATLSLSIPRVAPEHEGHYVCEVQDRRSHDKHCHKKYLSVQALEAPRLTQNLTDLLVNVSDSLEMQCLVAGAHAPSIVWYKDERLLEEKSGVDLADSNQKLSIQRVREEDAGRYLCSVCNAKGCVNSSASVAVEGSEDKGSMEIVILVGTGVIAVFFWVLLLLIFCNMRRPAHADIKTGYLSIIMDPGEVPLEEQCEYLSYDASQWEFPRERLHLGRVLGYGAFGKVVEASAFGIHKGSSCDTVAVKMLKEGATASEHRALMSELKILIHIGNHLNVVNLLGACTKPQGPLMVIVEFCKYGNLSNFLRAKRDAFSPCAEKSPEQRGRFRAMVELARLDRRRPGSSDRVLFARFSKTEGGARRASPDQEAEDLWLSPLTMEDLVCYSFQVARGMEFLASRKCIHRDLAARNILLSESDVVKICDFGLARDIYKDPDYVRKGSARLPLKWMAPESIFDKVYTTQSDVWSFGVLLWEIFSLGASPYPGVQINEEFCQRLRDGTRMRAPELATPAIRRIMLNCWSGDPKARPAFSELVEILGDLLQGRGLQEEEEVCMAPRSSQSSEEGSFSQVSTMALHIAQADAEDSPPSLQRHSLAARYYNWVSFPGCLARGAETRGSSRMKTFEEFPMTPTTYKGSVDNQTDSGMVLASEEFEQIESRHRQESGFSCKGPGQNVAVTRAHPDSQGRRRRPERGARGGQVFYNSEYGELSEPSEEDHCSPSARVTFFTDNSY
UniProt Q9UK73, whole entry, looked up: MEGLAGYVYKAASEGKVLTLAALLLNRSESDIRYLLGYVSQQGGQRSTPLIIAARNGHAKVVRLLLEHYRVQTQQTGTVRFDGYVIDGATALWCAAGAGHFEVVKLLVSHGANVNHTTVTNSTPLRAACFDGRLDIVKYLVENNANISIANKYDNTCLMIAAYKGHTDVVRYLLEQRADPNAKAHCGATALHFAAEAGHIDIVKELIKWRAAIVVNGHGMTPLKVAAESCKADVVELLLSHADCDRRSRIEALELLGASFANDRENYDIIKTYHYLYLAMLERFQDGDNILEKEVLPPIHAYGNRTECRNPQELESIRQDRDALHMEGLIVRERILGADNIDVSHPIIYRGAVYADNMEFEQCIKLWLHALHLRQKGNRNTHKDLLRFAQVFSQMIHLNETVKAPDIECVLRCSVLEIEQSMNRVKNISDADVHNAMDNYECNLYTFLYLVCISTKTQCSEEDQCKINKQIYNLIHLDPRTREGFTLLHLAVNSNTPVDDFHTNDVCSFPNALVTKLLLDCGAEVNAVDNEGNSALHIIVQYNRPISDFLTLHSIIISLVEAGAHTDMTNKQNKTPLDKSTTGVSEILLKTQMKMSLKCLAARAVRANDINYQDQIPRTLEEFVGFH
UniProt P12318: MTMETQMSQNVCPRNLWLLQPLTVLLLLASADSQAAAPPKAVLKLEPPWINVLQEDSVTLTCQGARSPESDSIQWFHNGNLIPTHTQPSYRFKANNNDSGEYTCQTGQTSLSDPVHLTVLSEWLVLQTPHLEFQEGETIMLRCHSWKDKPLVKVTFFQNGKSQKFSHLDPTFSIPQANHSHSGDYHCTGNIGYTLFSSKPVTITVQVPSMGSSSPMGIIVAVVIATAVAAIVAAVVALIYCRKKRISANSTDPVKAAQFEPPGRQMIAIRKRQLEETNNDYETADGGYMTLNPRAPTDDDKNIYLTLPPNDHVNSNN

Assays:
Assay in all cases: log2 fold change, soluble protein after heating vs DMSO (PISA); higher = thermal stabilisation; K562 cells, 10 uM, 30 min; active = over 0.2 and 3.5 SD of the protein, either way, in both replicates (recomputed)
IRAK-1-4 Inhibitor I = compound: C1COCCN1CCN2C3=CC=CC=C3N=C2NC(=O)C4=CC(=CC=C4)[N+](=O)[O-] [IRAK-1-4 Inhibitor I]
Summary of the method: (§1)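 K562 cells at 2×10^6 cells/mL were treated with 10 μM compound for 30 min. Aliquots were heated for 3 min across 48°C-58°C, pooled, and extracted in PBS with 0.5% NP-40 at 4°C; soluble protein was the supernatant after 21,000xg for 90 min. Soluble protein was quantified by TMTpro 16plex LC-MS/MS with channel sums equalised, and reported as log2 fold change in thermal stability against DMSO controls, with values from duplicates.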

ibrutinib = compound: C=CC(=O)N1CCC[C@@H](n2nc(-c3ccc(Oc4ccccc4)cc3)c3c(N)ncnc32)C1 [ibrutinib]
Summary of the method: as §1

[1] = compound: CC(=O)c1cnc2ccc(-c3cc(Cl)c(O)c(Cl)c3)nc2c1N[C@H]1CC[C@H](CN(C)C)CC1
Summary of the method: as §1

ralimetinib = compound: CC(C)(C)Cn1c(N)nc2ccc(-c3[nH]c(C(C)(C)C)nc3-c3ccc(F)cc3)nc21 [ralimetinib]
Summary of the method: as §1

[2] = compound: CC(C)(O)CC(=O)NCCn1ccc2ncnc(Nc3ccc(Oc4cccc(C(F)(F)F)c4)c(Cl)c3)c21
Summary of the method: as §1

[3] = compound: CC(C)C1=C2N=C(C=C(N2N=C1)NCC3=CC=CC=C3)NCCCCCCN
Summary of the method: as §1

[4] = compound: CC(C)C[C@@H](C=O)NC(=O)[C@H](CC(C)C)NC(=O)[C@H](CC(C)C)NC(=O)OCc1ccccc1
Summary of the method: as §1

pinometostat = compound: CC(C)N(C[C@H]1O[C@@H](n2cnc3c(N)ncnc32)[C@H](O)[C@@H]1O)[C@H]1C[C@@H](CCc2nc3cc(C(C)(C)C)ccc3[nH]2)C1 [pinometostat]
Summary of the method: as §1

[5] = compound: CC1=C(C(CC(=O)N1)C2=CC=C(C=C2)C(F)(F)F)C(=O)NC3=C(C=C4C(=C3)C=NN4)F
Summary of the method: as §1

[6] = compound: CC1=C(C2=C(C=C1)C(=O)C3=CC=CC=C3N2CCCN)C
Summary of the method: as §1

[7] = compound: CC1=C(C=C(C=C1)NC(=O)C2=CC(=CC=C2)C(C)(C)C#N)NC3=CC4=C(C=C3)N=CN(C4=O)C
Summary of the method: as §1

[8] = compound: CC1=C(C=C(C=C1)NC(=O)C2=CC(=CC=C2)N(C)C)NC(=O)C3=CC=C(C=C3)O
Summary of the method: as §1

[9] = compound: CC1=CC=C(C=C1)SC2=C3C=C(SC3=CN=C2)C(=O)N
Summary of the method: as §1

[10] = compound: CC1=NC(=CC=C1)C2=C(N=C(N2)C(C)(C)C)C3=CC4=NC=CN=C4C=C3
Summary of the method: as §1

Nexturastat A = compound: CCCCN(Cc1ccc(C(=O)NO)cc1)C(=O)Nc1ccccc1 [Nexturastat A]
Summary of the method: as §1

vemurafenib = compound: CCCS(=O)(=O)Nc1ccc(F)c(C(=O)c2c[nH]c3ncc(-c4ccc(Cl)cc4)cc23)c1F [vemurafenib]
Summary of the method: as §1

[11] = compound: CCCS(=O)(=O)Nc1ccc(F)c(C(=O)c2c[nH]c3ncc(Cl)cc23)c1F
Summary of the method: as §1

[12] = compound: CCCc1cc(C)[nH]c(=O)c1CNC(=O)c1cc(-c2ccnc(N3CCN(C)CC3)c2)cc2c1cnn2C(C)C
Summary of the method: as §1

givinostat = compound: CCN(CC)Cc1ccc2cc(COC(=O)Nc3ccc(C(=O)NO)cc3)ccc2c1 [givinostat]
Summary of the method: as §1

barasertib = compound: CCN(CCCOc1ccc2c(Nc3cc(CC(=O)Nc4cccc(F)c4)[nH]n3)ncnc2c1)CCOP(=O)(O)O [barasertib]
Summary of the method: as §1

Measured: log2 fold change

FBLN1 (UniProt P23142)
inactive: IRAK-1-4 Inhibitor I 0.034 | ibrutinib 0.232 | [1] 0.106 | ralimetinib 0.013 | [2] 0.233 | [3] 0.145 | [4] 0.029 | pinometostat -0.041 | [5] 0.068 | [6] -0.203 | [7] -0.092 | [8] 0.314 | [9] 0.111 | [10] 0.188 | Nexturastat A 0.183 | vemurafenib 0.093 | [11] -0.167 | [12] -0.232 | givinostat -0.014 | barasertib -0.143

FAM98A (UniProt Q8NCA5)
inactive: IRAK-1-4 Inhibitor I -0.017 | ibrutinib -0.006 | [1] -0.005 | ralimetinib 0.06 | [2] -0.001 | [3] -0.08 | [4] 0.102 | pinometostat 0.247 | [5] -0.022 | [6] -0.057 | [7] 0.03 | [8] -0.014 | [9] -0.036 | [10] -0.047 | Nexturastat A 0.23 | vemurafenib -0.014 | [11] -0.057 | [12] 0.133 | givinostat 0.036 | barasertib -0.027

FKBP2 (UniProt P26885)
inactive: IRAK-1-4 Inhibitor I 0.028 | ibrutinib 0.026 | [1] -0.027 | ralimetinib -0.037 | [2] 0.052 | [3] 0.002 | [4] 0.055 | pinometostat -0.018 | [5] -0.023 | [6] 0.026 | [7] 0.02 | [8] -0.023 | [9] 0.022 | [10] 0.062 | Nexturastat A -0.011 | vemurafenib -0.055 | [11] -0.053 | [12] -0.002 | givinostat -0.004 | barasertib 0.016

FBXL12 (UniProt Q9NXK8)
inactive: IRAK-1-4 Inhibitor I 0.229 | ibrutinib -0.01 | [1] 0.018 | ralimetinib -0.01 | [2] -0.038 | [3] -0.014 | [4] -0.187 | pinometostat -0.252 | [5] -0.014 | [6] 0.151 | [7] 0 | [8] -0.104 | [9] -0.003 | [10] -0.208 | Nexturastat A -0.005 | vemurafenib 0.054 | [11] 0.017 | [12] -0.059 | givinostat -0.004 | barasertib 0.037

FARSB (UniProt Q9NSD9)
inactive: IRAK-1-4 Inhibitor I -0.028 | ibrutinib -0.036 | [1] 0.009 | ralimetinib 0.022 | [2] -0.023 | [3] -0.066 | [4] -0.004 | pinometostat 0.012 | [5] 0.004 | [6] -0.004 | [7] 0.036 | [8] -0.029 | [9] -0.003 | [10] 0 | Nexturastat A 0.002 | vemurafenib 0.02 | [11] 0.045 | [12] 0.017 | givinostat 0.026 | barasertib 0.027

FBXO22 (UniProt Q8NEZ5)
inactive: IRAK-1-4 Inhibitor I 0.016 | ibrutinib 0.054 | [1] -0.025 | ralimetinib -0.029 | [2] -0.017 | [3] 0.042 | [4] 0.034 | pinometostat -0.016 | [5] -0.019 | [6] 0.182 | [7] 0.004 | [8] -0.016 | [9] 0.031 | [10] 0.02 | Nexturastat A -0.059 | vemurafenib 0.028 | [11] 0.027 | [12] -0.02 | givinostat 0 | barasertib 0.011

FAU (UniProt P62861)
inactive: IRAK-1-4 Inhibitor I -0.085 | ibrutinib 0.056 | [1] 0.093 | ralimetinib 0.182 | [2] 0.099 | [3] -0.043 | [4] 0.265 | pinometostat 0.251 | [5] 0.128 | [6] -0.699 | [7] 0.01 | [8] 0.036 | [9] -0.038 | [10] -0.07 | Nexturastat A 0.128 | vemurafenib -0.154 | [11] -0.062 | [12] 0.095 | givinostat 0.035 | barasertib -0.071

FCHO2 (UniProt Q0JRZ9)
inactive: IRAK-1-4 Inhibitor I -0.011 | ibrutinib -0.064 | [1] -0.236 | ralimetinib -0.034 | [2] -0.022 | [3] -0.153 | [4] 0.073 | pinometostat -0.065 | [5] -0.313 | [6] 0.032 | [7] -0.01 | [8] -0.067 | [9] 0.048 | [10] 0.058 | Nexturastat A 0.035 | vemurafenib 0.057 | [11] 0.064 | [12] 0.014 | givinostat 0.084 | barasertib -0.004

FBH1 isoform 2 (UniProt Q8NFZ0)
inactive: IRAK-1-4 Inhibitor I -0.028 | ibrutinib 0.118 | [1] -0.155 | ralimetinib -0.111 | [2] -0.069 | [3] 0.226 | [4] -0.006 | pinometostat -0.064 | [5] 0.101 | [6] 0.06 | [7] -0.115 | [8] -0.039 | [9] 0.023 | [10] -0.154 | Nexturastat A 0.076 | vemurafenib 0.119 | [11] 0.014 | [12] -0.439 | givinostat 0.027 | barasertib 0.004

FKBP15 (UniProt Q5T1M5)
inactive: IRAK-1-4 Inhibitor I -0.123 | ibrutinib -0.023 | [1] -0.058 | ralimetinib 0.084 | [2] -0.094 | [3] -0.113 | [4] 0.052 | pinometostat 0.06 | [5] 0.117 | [6] 0.035 | [7] -0.075 | [8] -0.016 | [9] -0.02 | [10] -0.004 | Nexturastat A 0.022 | vemurafenib -0.019 | [11] 0.029 | [12] 0.057 | givinostat 0.094 | barasertib 0.081

FASTKD2 (UniProt Q9NYY8)
inactive: IRAK-1-4 Inhibitor I 0.02 | ibrutinib -0.012 | [1] -0.038 | ralimetinib -0.018 | [2] -0.042 | [3] -0.13 | [4] -0.025 | pinometostat -0.008 | [5] -0.006 | [6] -0.027 | [7] 0.005 | [8] -0.007 | [9] 0.028 | [10] -0.001 | Nexturastat A -0.022 | vemurafenib 0.003 | [11] 0.067 | [12] -0.05 | givinostat 0.014 | barasertib 0.036

Looked up one by one from the list above (2):
FAM98A (UniProt Q8NCA5)
inactive: IRAK-1-4 Inhibitor I -0.017 | ibrutinib -0.006 | [1] -0.005 | ralimetinib 0.06 | [2] -0.001 | [3] -0.08 | [4] 0.102 | pinometostat 0.247 | [5] -0.022 | [6] -0.057 | [7] 0.03 | [8] -0.014 | [9] -0.036 | [10] -0.047 | Nexturastat A 0.23 | vemurafenib -0.014 | [11] -0.057 | [12] 0.133 | givinostat 0.036 | barasertib -0.027

FKBP15 (UniProt Q5T1M5)
inactive: IRAK-1-4 Inhibitor I -0.123 | ibrutinib -0.023 | [1] -0.058 | ralimetinib 0.084 | [2] -0.094 | [3] -0.113 | [4] 0.052 | pinometostat 0.06 | [5] 0.117 | [6] 0.035 | [7] -0.075 | [8] -0.016 | [9] -0.02 | [10] -0.004 | Nexturastat A 0.022 | vemurafenib -0.019 | [11] 0.029 | [12] 0.057 | givinostat 0.094 | barasertib 0.081

The list continues.

FBXO5 (UniProt Q9UKT4)
inactive: IRAK-1-4 Inhibitor I 0 | ibrutinib -0.044 | [1] -0.033 | ralimetinib 0.048 | [2] -0.001 | [3] 0.07 | [4] 0.144 | pinometostat 0.011 | [5] 0.101 | [6] -0.032 | [7] -0.031 | [8] 0.118 | [9] -0.027 | [10] -0.029 | Nexturastat A -0.004 | vemurafenib -0.037 | [11] -0.017 | [12] -0.06 | givinostat -0.009 | barasertib 0.022

FAR1 (UniProt Q8WVX9)
inactive: IRAK-1-4 Inhibitor I -0.014 | ibrutinib -0.011 | [1] -0.011 | ralimetinib -0.052 | [2] -0.036 | [3] -0.098 | [4] 0.112 | pinometostat -0.023 | [5] -0.019 | [6] 0.029 | [7] -0.015 | [8] -0.028 | [9] 0.023 | [10] 0.05 | Nexturastat A -0.016 | vemurafenib 0.002 | [11] 0.024 | [12] -0.011 | givinostat 0.041 | barasertib 0.043

FLT4 (UniProt P35916)
inactive: IRAK-1-4 Inhibitor I -0.001 | ibrutinib 0.012 | [1] 0.007 | ralimetinib -0.083 | [2] -0.055 | [3] 0.032 | [4] -0.004 | pinometostat -0.094 | [5] -0.009 | [6] 0.086 | [7] 0.034 | [8] 0.06 | [9] 0.031 | [10] 0.013 | Nexturastat A -0.035 | vemurafenib 0.087 | [11] -0.051 | [12] -0.042 | givinostat -0.087 | barasertib -0.019

FEM1B (UniProt Q9UK73)
inactive: IRAK-1-4 Inhibitor I 0.029 | ibrutinib -0.069 | [1] -0.009 | ralimetinib -0.034 | [2] -0.021 | [3] 0.037 | [4] 0.099 | pinometostat 0.019 | [5] 0.04 | [6] -0.06 | [7] -0.036 | [8] 0.023 | [9] 0.019 | [10] -0.039 | Nexturastat A 0.102 | vemurafenib -0.004 | [11] -0.012 | [12] -0.025 | givinostat 0.072 | barasertib 0.049

FCGR2A (UniProt P12318)
inactive: IRAK-1-4 Inhibitor I -0.039 | ibrutinib 0.044 | [1] -0.225 | ralimetinib 0.041 | [2] 0.131 | [3] 0.182 | [4] 0.019 | pinometostat 0.067 | [5] -0.178 | [6] 0.077 | [7] -0.05 | [8] 0.051 | [9] -0.148 | [10] 0.012 | Nexturastat A 0.07 | vemurafenib 0.067 | [11] 0.043 | [12] -0.13 | givinostat -0.044 | barasertib 0.069
